# Assay results published in the supplement of paper PMC10849652.
# Protein sequences, listed by entry. Tags and fused reporters are not part of them. Lines headed by an entry give the natural chain unless they say otherwise; changes in a name come on top.
# UniProt Q9BZL6: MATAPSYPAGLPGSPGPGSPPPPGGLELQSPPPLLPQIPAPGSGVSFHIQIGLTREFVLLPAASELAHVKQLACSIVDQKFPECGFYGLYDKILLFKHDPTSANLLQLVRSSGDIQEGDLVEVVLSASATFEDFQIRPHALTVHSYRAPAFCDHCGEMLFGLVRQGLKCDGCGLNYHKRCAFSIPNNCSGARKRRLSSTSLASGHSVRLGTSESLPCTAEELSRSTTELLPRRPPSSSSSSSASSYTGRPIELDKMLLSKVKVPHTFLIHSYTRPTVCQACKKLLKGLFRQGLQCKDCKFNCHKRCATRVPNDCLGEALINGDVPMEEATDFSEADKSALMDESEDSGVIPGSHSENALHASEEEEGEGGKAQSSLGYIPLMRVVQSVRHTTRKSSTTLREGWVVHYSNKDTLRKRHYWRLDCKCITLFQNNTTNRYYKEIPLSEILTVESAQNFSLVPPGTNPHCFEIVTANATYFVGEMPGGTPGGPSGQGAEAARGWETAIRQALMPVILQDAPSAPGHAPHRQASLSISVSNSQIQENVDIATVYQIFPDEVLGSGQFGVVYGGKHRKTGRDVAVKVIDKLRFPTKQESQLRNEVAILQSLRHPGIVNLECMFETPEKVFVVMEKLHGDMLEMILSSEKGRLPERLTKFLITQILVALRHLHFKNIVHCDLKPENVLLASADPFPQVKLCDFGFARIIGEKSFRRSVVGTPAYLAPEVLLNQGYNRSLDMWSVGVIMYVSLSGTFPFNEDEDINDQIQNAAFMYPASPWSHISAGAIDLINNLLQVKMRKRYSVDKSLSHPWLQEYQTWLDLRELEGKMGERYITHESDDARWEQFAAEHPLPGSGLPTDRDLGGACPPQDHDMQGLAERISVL
# UniProt Q06830: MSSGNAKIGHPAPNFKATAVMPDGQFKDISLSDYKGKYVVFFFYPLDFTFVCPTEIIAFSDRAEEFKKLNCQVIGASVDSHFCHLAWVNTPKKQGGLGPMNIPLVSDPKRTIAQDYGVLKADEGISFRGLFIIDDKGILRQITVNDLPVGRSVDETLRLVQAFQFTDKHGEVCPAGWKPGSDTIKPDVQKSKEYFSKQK
# UniProt Q9Y3C6: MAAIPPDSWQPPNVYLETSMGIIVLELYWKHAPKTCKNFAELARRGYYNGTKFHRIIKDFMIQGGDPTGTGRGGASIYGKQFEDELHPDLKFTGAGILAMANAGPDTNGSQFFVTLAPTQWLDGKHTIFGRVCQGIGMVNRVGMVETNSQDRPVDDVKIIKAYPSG
# UniProt Q99633: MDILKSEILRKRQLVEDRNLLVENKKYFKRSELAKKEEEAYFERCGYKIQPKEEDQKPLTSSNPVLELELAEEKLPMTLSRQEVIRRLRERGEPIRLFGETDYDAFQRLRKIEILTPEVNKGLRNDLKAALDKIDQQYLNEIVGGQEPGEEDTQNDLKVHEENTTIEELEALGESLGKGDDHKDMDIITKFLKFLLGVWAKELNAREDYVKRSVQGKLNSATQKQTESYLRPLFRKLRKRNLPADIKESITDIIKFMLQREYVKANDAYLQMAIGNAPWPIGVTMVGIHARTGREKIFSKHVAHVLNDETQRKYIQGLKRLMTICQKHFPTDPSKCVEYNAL
# UniProt Q12972: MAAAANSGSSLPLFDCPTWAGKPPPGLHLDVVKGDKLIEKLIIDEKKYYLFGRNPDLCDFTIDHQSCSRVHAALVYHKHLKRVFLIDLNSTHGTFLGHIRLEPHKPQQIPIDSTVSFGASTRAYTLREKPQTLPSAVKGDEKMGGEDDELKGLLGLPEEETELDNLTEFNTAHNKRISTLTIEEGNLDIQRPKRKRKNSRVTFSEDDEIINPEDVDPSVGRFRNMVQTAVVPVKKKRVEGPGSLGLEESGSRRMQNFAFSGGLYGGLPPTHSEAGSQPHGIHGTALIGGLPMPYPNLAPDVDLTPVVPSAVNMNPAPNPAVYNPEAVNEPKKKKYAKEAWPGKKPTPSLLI
# UniProt O60828: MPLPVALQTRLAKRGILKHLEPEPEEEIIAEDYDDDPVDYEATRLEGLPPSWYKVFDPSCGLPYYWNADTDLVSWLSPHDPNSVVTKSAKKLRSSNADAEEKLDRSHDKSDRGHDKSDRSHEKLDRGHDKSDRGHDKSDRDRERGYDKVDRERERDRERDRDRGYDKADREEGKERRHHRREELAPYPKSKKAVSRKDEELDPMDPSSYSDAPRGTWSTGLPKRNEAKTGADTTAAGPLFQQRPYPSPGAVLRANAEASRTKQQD
# UniProt Q9H875: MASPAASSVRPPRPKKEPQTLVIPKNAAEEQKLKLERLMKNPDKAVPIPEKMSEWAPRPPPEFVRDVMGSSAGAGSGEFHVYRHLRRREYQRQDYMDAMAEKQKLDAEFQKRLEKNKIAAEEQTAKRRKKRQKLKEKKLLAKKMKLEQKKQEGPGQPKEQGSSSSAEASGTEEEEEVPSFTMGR
# UniProt Q9NY27: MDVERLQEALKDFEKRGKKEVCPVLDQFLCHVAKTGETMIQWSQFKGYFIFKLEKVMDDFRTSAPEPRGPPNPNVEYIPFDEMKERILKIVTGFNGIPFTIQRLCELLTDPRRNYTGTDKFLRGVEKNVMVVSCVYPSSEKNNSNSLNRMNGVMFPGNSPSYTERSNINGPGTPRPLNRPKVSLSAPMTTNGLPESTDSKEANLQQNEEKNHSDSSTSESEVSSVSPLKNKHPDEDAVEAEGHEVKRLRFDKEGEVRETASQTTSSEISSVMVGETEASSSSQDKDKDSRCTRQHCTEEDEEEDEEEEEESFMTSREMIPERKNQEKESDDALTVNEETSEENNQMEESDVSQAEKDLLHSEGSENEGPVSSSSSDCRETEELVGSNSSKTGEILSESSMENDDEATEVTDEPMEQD
# UniProt Q15173: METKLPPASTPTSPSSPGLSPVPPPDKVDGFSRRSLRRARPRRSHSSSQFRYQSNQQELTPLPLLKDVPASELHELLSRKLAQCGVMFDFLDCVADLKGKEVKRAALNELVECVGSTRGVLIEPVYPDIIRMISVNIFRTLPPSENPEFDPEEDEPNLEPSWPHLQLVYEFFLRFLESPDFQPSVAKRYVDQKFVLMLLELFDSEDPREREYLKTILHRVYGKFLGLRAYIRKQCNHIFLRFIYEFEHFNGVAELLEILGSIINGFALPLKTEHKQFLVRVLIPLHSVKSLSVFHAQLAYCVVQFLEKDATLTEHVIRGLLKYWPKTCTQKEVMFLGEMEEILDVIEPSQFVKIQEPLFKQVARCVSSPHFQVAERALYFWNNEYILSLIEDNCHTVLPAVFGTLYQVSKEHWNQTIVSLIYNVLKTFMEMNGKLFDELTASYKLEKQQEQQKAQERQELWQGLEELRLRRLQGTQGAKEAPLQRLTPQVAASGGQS
# UniProt O75170: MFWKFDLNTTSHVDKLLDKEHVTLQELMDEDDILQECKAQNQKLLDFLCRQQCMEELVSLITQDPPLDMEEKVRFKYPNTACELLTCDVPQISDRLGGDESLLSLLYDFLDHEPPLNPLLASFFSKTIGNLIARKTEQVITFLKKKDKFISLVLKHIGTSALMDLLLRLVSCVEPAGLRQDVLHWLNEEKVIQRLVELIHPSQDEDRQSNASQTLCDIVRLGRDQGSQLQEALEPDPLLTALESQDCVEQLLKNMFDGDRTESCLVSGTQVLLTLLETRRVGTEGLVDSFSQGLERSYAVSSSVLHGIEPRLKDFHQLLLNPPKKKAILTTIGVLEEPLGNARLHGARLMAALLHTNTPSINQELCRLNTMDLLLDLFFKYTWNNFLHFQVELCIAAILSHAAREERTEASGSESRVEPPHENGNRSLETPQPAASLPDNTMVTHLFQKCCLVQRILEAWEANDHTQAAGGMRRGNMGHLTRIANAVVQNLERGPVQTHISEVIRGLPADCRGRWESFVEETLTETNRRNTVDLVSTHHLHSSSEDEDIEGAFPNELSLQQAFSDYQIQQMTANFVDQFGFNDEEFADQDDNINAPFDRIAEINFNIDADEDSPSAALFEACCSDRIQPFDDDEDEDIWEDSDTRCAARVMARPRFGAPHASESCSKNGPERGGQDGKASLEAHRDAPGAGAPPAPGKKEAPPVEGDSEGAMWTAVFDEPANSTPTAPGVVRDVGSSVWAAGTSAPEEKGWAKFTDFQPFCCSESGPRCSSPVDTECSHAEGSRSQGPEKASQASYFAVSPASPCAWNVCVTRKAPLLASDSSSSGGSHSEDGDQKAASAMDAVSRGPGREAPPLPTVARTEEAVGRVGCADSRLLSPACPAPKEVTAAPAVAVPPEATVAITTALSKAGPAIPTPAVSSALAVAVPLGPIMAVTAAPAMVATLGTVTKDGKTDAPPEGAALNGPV
# UniProt P30405: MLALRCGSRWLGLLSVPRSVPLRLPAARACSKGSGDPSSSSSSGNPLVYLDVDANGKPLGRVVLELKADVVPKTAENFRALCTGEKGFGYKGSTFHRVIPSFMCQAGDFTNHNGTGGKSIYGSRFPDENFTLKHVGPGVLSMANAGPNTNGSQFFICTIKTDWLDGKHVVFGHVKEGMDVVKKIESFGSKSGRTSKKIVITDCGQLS
# UniProt Q6NYC8: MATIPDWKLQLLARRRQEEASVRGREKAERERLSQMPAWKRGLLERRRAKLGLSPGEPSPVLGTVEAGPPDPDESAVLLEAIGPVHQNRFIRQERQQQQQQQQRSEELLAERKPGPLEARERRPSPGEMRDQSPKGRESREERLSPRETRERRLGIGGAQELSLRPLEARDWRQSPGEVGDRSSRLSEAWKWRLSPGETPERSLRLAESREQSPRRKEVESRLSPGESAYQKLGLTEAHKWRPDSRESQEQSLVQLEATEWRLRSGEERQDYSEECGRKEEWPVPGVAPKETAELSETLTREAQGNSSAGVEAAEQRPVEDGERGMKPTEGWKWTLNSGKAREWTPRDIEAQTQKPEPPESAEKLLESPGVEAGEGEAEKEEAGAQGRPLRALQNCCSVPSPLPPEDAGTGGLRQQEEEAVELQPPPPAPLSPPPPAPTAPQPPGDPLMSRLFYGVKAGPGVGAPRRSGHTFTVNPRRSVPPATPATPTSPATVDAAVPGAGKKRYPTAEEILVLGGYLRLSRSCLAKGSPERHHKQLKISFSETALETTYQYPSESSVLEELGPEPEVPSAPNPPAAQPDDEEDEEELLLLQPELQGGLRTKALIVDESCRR
# UniProt O43172: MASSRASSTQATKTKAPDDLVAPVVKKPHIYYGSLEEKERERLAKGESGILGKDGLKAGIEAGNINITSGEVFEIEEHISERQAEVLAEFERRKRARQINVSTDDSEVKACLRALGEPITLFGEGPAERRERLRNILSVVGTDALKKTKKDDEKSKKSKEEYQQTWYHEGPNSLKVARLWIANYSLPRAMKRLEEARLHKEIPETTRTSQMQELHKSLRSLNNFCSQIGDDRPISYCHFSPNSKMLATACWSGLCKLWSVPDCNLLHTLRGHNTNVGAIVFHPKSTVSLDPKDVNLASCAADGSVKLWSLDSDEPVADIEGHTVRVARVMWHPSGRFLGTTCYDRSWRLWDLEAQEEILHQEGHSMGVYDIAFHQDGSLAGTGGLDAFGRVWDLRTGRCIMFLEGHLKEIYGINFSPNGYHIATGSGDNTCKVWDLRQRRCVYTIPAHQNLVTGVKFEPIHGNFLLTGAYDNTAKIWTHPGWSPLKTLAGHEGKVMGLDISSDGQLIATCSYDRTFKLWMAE
# UniProt Q8NAV1: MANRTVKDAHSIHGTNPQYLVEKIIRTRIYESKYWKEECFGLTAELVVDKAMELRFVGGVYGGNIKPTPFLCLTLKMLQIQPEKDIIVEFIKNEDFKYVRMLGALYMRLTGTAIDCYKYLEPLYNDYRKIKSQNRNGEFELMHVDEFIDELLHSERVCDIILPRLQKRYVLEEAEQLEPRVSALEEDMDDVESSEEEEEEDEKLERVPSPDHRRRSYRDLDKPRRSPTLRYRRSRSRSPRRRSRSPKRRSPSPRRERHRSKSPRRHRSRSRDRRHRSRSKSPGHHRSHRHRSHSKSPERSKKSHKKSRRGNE
# UniProt P14314: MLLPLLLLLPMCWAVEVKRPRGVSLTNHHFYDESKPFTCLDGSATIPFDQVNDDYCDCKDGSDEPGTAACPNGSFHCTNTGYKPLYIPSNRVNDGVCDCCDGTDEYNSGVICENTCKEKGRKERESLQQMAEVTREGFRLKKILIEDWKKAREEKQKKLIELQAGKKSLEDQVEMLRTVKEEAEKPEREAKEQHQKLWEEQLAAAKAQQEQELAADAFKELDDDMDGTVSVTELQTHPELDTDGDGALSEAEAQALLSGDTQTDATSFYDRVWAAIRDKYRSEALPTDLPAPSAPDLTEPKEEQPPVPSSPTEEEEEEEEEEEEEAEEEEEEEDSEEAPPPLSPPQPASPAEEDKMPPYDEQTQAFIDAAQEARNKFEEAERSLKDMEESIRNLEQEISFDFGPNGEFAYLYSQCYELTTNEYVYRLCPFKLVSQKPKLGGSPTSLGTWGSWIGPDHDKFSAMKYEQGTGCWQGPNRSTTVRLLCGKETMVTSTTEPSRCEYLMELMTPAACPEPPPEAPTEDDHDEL
# Some of the results follow.
# Columns and labels:
# Assay in all cases: log2 fold change, soluble protein after heating vs DMSO (PISA); higher = thermal stabilisation; K562 lysate, 10 uM; active = over 0.2 and 3.5 SD of the protein, either way, in both replicates (recomputed)
# [1] = compound: CCCS(=O)(=O)Nc1ccc(F)c(C(=O)c2c[nH]c3ncc(-c4ccc(Cl)cc4)cc23)c1F [vemurafenib]
# Outline: (§1)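 Soluble protein was defined as the supernatant remaining after 21,000xg for 90 min, following pooling of heated aliquots and adjustment to 0.5% NP-40 at 4°C. Before that, crude K562 extract at 1 mg/mL protein in PBS pH 7.4 with 1 mM MgCl2 was treated with 10 μM compound for 30 min and heated for 3 min across 48°C-58°C. Quantification used TMTpro 16plex LC-MS/MS with channel sums equalised, and values are log-two fold changes in thermal stability relative to solvent controls from duplicates.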
# [2] = compound: CCCS(=O)(=O)Nc1ccc(F)c(C(=O)c2c[nH]c3ncc(Cl)cc23)c1F
# Outline: as §1
# [3] = compound: CCN(CCCOc1ccc2c(Nc3cc(CC(=O)Nc4cccc(F)c4)[nH]n3)ncnc2c1)CCOP(=O)(O)O [barasertib]
# Outline: as §1
# [4] = compound: CC[C@@H]1C(=O)N(C)c2cnc(Nc3ccc(C(=O)NC4CCN(C)CC4)cc3OC)nc2N1C1CCCC1
# Outline: as §1
# [5] = compound: CC[C@@H]1C(=O)N(C)c2cnc(Nc3ccc(C(=O)N[C@H]4CC[C@H](N5CCN(CC6CC6)CC5)CC4)cc3OC)nc2N1C(C)C [volasertib]
# Outline: as §1
# [6] = compound: CCn1c(C(=O)N(C2CC2)C2CC2)cc2c3c(ncn3C)c(Nc3cc(C)n(C)n3)nc21
# Outline: as §1
# [7] = compound: CCn1cc(-c2ccnc3[nH]c(-c4cccc(CN(C)C)c4)cc23)c(-c2ccc(NC(=O)N(C)C)cc2)n1
# Outline: as §1
# [8] = compound: CN1CCC(CNc2ccc3ncc(-c4cccc(OC(F)(F)F)c4)n3n2)CC1
# Outline: as §1
# [9] = compound: CN1CCN(CCOc2cc(OC3CCOCC3)c3c(Nc4c(Cl)ccc5c4OCO5)ncnc3c2)CC1 [saracatinib]
# Outline: as §1
# [10] = compound: CN1CCN(c2nc(C3=C(c4c[nH]c5ccccc45)C(=O)NC3=O)c3ccccc3n2)CC1 [sotrastaurin]
# Outline: as §1
Target,log2 fold change [1],log2 fold change [2],log2 fold change [3],log2 fold change [4],log2 fold change [5],log2 fold change [6],log2 fold change [7],log2 fold change [8],log2 fold change [9],log2 fold change [10]
PRKD2 isoform 3 (UniProt Q9BZL6),inactive: 0.041,inactive: -0.048,inactive: 0.034,active: -0.358,inactive: -0.131,inactive: 0.097,inactive: 0.038,inactive: -0.07,inactive: 0,inactive: 0.085
PRDX1 (UniProt Q06830),inactive: 0.008,inactive: 0.005,inactive: 0.001,inactive: 0.052,inactive: 0.046,inactive: -0.044,inactive: -0.044,inactive: 0.147,inactive: -0.023,inactive: 0.019
PPIL1 (UniProt Q9Y3C6),inactive: -0.003,inactive: -0.019,inactive: 0.026,inactive: -0.004,inactive: -0.033,inactive: -0.01,inactive: -0.036,inactive: 0.009,inactive: 0.015,inactive: 0.026
PPM1H (UniProt Q9ULR3),inactive: 0.066,inactive: -0.001,inactive: 0,inactive: 0.103,inactive: 0.025,inactive: 0,inactive: -0.079,inactive: 0.041,inactive: -0.062,inactive: 0.022
PRKACB isoform 2 (UniProt P22694),inactive: -0.077,inactive: -0.016,inactive: 0.013,inactive: -0.021,inactive: -0.01,inactive: -0.072,inactive: -0.021,inactive: 0.125,inactive: 0.012,inactive: 0.175
PRPF18 (UniProt Q99633),inactive: -0.002,inactive: -0.009,inactive: 0.032,inactive: 0.016,inactive: -0.026,inactive: 0.031,inactive: -0.015,inactive: -0.024,inactive: 0.052,inactive: -0.018
PPP2CB (UniProt P62714),inactive: -0.01,inactive: 0.03,inactive: 0.001,inactive: 0.014,inactive: 0.017,inactive: -0.012,inactive: -0.066,inactive: 0.034,inactive: -0.023,inactive: -0.017
PPP1R8 (UniProt Q12972),inactive: 0.049,inactive: -0.011,inactive: -0.032,inactive: 0.08,inactive: -0.007,inactive: -0.031,active: -0.28,inactive: 0.176,inactive: -0.038,inactive: 0.015
PQBP1 (UniProt O60828),inactive: 0.036,inactive: -0.006,inactive: -0.032,inactive: 0.106,inactive: 0.03,inactive: -0.063,inactive: -0.005,inactive: 0.079,inactive: 0,inactive: -0.02
PRKRIP1 (UniProt Q9H875),inactive: -0.014,inactive: 0.025,inactive: -0.014,inactive: 0.007,inactive: 0.021,inactive: 0.016,inactive: -0.008,inactive: -0.019,inactive: -0.023,inactive: -0.004
PPP2R5A (UniProt Q15172),inactive: 0.04,inactive: 0.038,inactive: 0.021,inactive: -0.101,inactive: -0.072,inactive: 0.009,inactive: 0.103,inactive: -0.195,inactive: -0.025,inactive: 0.046
PRKAG2 (UniProt Q9UGJ0),inactive: -0.209,inactive: 0.001,inactive: 0.02,inactive: -0.118,inactive: -0.026,inactive: 0.107,inactive: -0.106,inactive: 0.022,inactive: -0.032,inactive: 0.144
PPP4R2 (UniProt Q9NY27),inactive: -0.033,inactive: 0.026,inactive: -0.041,inactive: 0.057,inactive: -0.014,inactive: -0.042,inactive: 0.21,inactive: 0.028,inactive: -0.007,inactive: 0.006
PPP2R5B (UniProt Q15173),inactive: -0.036,inactive: 0,inactive: -0.016,inactive: -0.057,inactive: 0.031,inactive: 0,inactive: -0.01,inactive: -0.079,inactive: 0.001,inactive: -0.074
PRCC (UniProt Q92733),inactive: -0.007,inactive: -0.001,inactive: -0.053,inactive: 0.027,inactive: 0.039,inactive: 0.014,inactive: -0.025,inactive: 0.052,inactive: 0.024,inactive: -0.022
PPP2R5D (UniProt Q14738),inactive: -0.009,inactive: 0.004,inactive: 0.024,inactive: 0.007,inactive: -0.016,inactive: 0.015,inactive: 0.005,inactive: -0.031,inactive: 0,inactive: -0.001
PPP6R2 isoform 5 (UniProt O75170),inactive: 0.015,inactive: 0.013,inactive: -0.048,inactive: 0.055,inactive: -0.049,inactive: 0.076,inactive: -0.07,inactive: -0.02,inactive: 0.014,inactive: 0.036
PPIF (UniProt P30405),inactive: 0.006,inactive: -0.004,inactive: -0.028,inactive: 0.02,inactive: 0.029,inactive: -0.033,inactive: -0.187,inactive: 0.118,inactive: -0.011,inactive: 0
PPP1R18 (UniProt Q6NYC8),inactive: 0.021,inactive: 0.004,inactive: 0.051,inactive: 0.008,inactive: 0.001,inactive: 0,inactive: 0.051,inactive: -0.026,inactive: 0.029,inactive: -0.024
PRPF4 (UniProt O43172),inactive: -0.011,inactive: 0.022,inactive: 0.002,inactive: 0.06,inactive: -0.019,inactive: -0.004,inactive: 0.201,inactive: -0.084,inactive: 0.01,inactive: -0.023
PPIH (UniProt O43447),inactive: -0.013,inactive: -0.002,inactive: 0.042,inactive: -0.021,inactive: -0.018,inactive: 0.008,inactive: 0,inactive: 0.016,inactive: -0.003,inactive: 0.02
PPIP5K2 (UniProt O43314),inactive: -0.012,inactive: 0.035,inactive: 0.019,inactive: -0.036,inactive: -0.023,inactive: -0.023,inactive: 0.094,inactive: -0.02,inactive: -0.007,inactive: 0.014
PRPF38A (UniProt Q8NAV1),inactive: -0.021,inactive: -0.011,inactive: -0.037,inactive: -0.029,inactive: -0.031,inactive: -0.055,active: -0.465,inactive: 0.046,inactive: 0.004,inactive: 0.191
PPP2CA (UniProt P67775),inactive: 0.061,inactive: -0.008,inactive: -0.012,inactive: 0.032,inactive: -0.012,inactive: 0.02,inactive: 0.13,inactive: 0.049,inactive: 0.039,inactive: -0.047
PRMT6 (UniProt Q96LA8),inactive: -0.051,inactive: 0.017,inactive: 0.008,inactive: -0.065,inactive: 0.007,inactive: 0.054,inactive: 0.075,inactive: -0.055,inactive: -0.005,inactive: 0.045
PRAME (UniProt P78395),inactive: 0.028,inactive: -0.012,inactive: 0.003,inactive: -0.086,inactive: -0.009,inactive: 0.017,inactive: -0.058,inactive: 0.011,inactive: 0,inactive: 0.018
PPP3CB (UniProt P16298),inactive: 0.007,inactive: -0.005,inactive: -0.021,inactive: 0.021,inactive: 0.005,inactive: 0.052,inactive: -0.06,inactive: 0.079,inactive: 0.006,inactive: 0.013
PPWD1 (UniProt Q96BP3),inactive: 0.031,inactive: 0.021,inactive: 0.006,inactive: -0.013,inactive: -0.013,inactive: -0.006,inactive: 0.013,inactive: -0.026,inactive: -0.021,inactive: 0.023
PRKAR2A (UniProt P13861),inactive: -0.01,inactive: 0.033,inactive: 0.055,inactive: 0.011,inactive: -0.013,inactive: 0.009,inactive: 0.065,active: -0.26,inactive: -0.012,inactive: -0.154
PRKCSH (UniProt P14314),inactive: 0.01,inactive: -0.009,inactive: -0.009,inactive: 0.007,inactive: 0.04,inactive: 0.025,inactive: 0.007,inactive: -0.003,inactive: 0.011,inactive: 0.018

# Pulled one by one from above:
Target,log2 fold change [1],log2 fold change [2],log2 fold change [3],log2 fold change [4],log2 fold change [5],log2 fold change [6],log2 fold change [7],log2 fold change [8],log2 fold change [9],log2 fold change [10]
PQBP1 (UniProt O60828),inactive: 0.036,inactive: -0.006,inactive: -0.032,inactive: 0.106,inactive: 0.03,inactive: -0.063,inactive: -0.005,inactive: 0.079,inactive: 0,inactive: -0.02
PPIH (UniProt O43447),inactive: -0.013,inactive: -0.002,inactive: 0.042,inactive: -0.021,inactive: -0.018,inactive: 0.008,inactive: 0,inactive: 0.016,inactive: -0.003,inactive: 0.02
